Experimental findings from article doi:10.1101/373829 are described below.

Chains of the proteins cited; added tags and fusions are not shown.
UniProt P0A8T7, whole entry: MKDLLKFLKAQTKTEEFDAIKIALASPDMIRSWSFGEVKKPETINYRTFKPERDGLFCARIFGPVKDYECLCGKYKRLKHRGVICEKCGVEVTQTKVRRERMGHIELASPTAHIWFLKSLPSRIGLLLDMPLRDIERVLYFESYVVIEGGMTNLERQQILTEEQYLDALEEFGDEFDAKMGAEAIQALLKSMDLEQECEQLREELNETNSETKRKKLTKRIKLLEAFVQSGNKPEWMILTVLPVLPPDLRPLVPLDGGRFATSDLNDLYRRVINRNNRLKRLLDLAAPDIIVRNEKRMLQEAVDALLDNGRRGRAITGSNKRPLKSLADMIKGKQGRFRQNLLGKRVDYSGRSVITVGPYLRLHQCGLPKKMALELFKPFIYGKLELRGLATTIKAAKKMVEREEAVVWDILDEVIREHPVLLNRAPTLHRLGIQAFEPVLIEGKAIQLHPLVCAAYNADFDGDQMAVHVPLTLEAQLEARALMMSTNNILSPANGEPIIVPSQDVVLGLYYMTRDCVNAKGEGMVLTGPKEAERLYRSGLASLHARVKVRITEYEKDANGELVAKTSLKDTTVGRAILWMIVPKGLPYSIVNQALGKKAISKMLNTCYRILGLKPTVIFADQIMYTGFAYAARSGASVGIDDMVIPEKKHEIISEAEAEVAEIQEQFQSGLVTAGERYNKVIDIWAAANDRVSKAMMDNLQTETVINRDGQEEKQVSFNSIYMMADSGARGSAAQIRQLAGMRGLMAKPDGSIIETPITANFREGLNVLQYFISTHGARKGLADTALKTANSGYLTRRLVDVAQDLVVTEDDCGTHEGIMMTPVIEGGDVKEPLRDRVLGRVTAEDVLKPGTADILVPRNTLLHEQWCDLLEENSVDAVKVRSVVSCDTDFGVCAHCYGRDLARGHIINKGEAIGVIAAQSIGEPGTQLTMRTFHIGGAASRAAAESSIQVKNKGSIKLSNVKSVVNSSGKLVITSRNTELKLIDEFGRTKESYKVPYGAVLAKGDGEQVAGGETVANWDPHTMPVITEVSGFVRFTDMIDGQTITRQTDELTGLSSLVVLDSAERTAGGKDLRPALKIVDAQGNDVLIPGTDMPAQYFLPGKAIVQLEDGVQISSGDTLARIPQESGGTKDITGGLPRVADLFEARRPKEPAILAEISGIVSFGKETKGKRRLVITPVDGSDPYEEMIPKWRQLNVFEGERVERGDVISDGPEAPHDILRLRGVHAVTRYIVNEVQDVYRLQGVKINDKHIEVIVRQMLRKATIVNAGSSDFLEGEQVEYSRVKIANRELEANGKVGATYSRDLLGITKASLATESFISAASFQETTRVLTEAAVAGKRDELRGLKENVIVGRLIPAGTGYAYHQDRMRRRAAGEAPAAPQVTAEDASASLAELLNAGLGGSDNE

These are yes or no findings as the source states them, for the method shown. Binding seen in cells or lysates may run through a third protein. A yes stands for co-enrichment or nearness to the bait. Other partners may have been found.

This test concerns the target His6-tagged RpoC (E. coli (endogenous in strain RL721)) (UniProt P0A8T7). Briefly: affinity purification with mass spectrometry.

B1: MalT (protein, UniProt P06993 1-901)
chain: MLIPSKLSRPVRLDHTVVRERLLAKLSGANNFRLALITSPAGYGKTTLISQWAAGKNDIGWYSLDEGDNQQERFASYLIAAVQQATNGHCAICETMAQKRQYASLTSLFAQLFIELAEWHSPLYLVIDDYHLITNPVIHESMRFFIRHQPENLTLVVLSRNLPQLGIANLRVRDQLLEIGSQQLAFTHQEAKQFFDCRLSSPIEAAESSRICDDVSGWATALQLIALSARQNTHSAHKSARRLAGINASHLSDYLVDEVLDNVDLATRHFLLKSAILRSMNDALITRVTGEENGQMRLEEIERQGLFLQRMDDTGEWFCYHPLFGNFLRQRCQWELAAELPEIHRAAAESWMAQGFPSEAIHHALAAGDALMLRDILLNHAWSLFNHSELSLLEESLKALPWDSLLENPQLVLLQAWLMQSQHRYGEVNTLLARAEHEIKDIREDTMHAEFNALRAQVAINDGNPDEAERLAKLALEELPPGWFYSRIVATSVLGEVLHCKGELTRSLALMQQTEQMARQHDVWHYALWSLIQQSEILFAQGFLQTAWETQEKAFQLINEQHLEQLPMHEFLVRIRAQLLWAWARLDEAEASARSGIEVLSSYQPQQQLQCLAMLIQCSLARGDLDNARSQLNRLENLLGNGKYHSDWISNANKVRVIYWQMTGDKAAAANWLRHTAKPEFANNHFLQGQWRNIARAQILLGEFEPAEIVLEELNENARSLRLMSDLNRNLLLLNQLYWQAGRKSDAQRVLLDALKLANRTGFISHFVIEGEAMAQQLRQLIQLNTLPELEQHRAQRILREINQHHRHKFAHFDENFVERLLNHPEVPELIRTSPLTQREWQVLGLIYSGYSNEQIAGELEVAATTIKTHIRNLYQKLGVAHRQDAVQHAQQLLKMMGYGV
Consider B1, for which the binding entry is given as “binds”.

B2: ExuR (protein, UniProt P0ACL2 1-258)
chain: MEITEPRRLYQQLAADLKERIEQGVYLVGDKLPAERFIADEKNVSRTVVREAIIMLEVEGYVEVRKGSGIHVVSNQPRHQQAADNNMEFANYGPFELLQARQLIESNIAEFAATQVTKQDIMKLMAIQEQARGEQCFRDSEWDLQFHIQVALATQNSALAAIVEKMWTQRSHNPYWKKLHEHIDSRTVDNWCDDHDQILKALIRKDPHAAKLAMWQHLENTKIMLFNETSDDFEFNADRYLFAENPVVHLDTATSGSK
Regarding B2, the binding result was “binds”.
